Source: PubChem BioAssay AID743121 (NCATS, 2013)

- Aim: 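Genes whose silencing strengthens cell killing by camptothecin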 (primary screen)
- System: MDA-MB-231 cells, a human breast cancer line
- Reagents: single siRNA against human genes, 20 nM siRNA (0.8 pmol per well)
- Timing: 120 h (drug added 48 h after transfection, read 72 h later)
- Treatment: camptothecin 20 nM (about EC30) for 72 h; vehicle 0.1% DMSO in parallel plates
- Read-out: 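CellTiter-Glo ATP signal, scaled to control siRNA as percent viability; sensitisation given as log2 of untreated divided by camptothecin-treated viability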
- Scale: log2 vehicle/camptothecin viability: higher = stronger sensitisation to camptothecin
- Rule for the call: 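Active genes have an RSA gene-level p-value below 0.001, computed from the ratios of their separate siRNAs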
Here is an unselected part of about 26,000 reagents tested. 167 of all reagents (0.63%) count as active. 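Calls are per gene from RSA p-values that are not deposited; an individual active-marked siRNA can sensitise only weakly.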 Reagents against one gene are numbered here. Further read-outs or replicates are left out here. No sequences are given here.

target | siRNA no. | log2 vehicle/camptothecin viability | Call
PEA15 (proliferation and apoptosis adaptor protein 15) | 1 | -0.0546 | inactive
PEA15 (proliferation and apoptosis adaptor protein 15) | 2 | -0.34 | inactive
PEA15 (proliferation and apoptosis adaptor protein 15) | 3 | -0.204 | inactive
PEA15 (proliferation and apoptosis adaptor protein 15) | 4 | -0.0803 | inactive
PEX19 (peroxisomal biogenesis factor 19) | 1 | 0.171 | inactive
PEX19 (peroxisomal biogenesis factor 19) | 2 | -0.345 | inactive
PEX19 (peroxisomal biogenesis factor 19) | 3 | -0.0722 | inactive
ALDH3A2 (aldehyde dehydrogenase 3 family member A2) | 1 | -0.243 | inactive
ALDH3A2 (aldehyde dehydrogenase 3 family member A2) | 2 | -0.275 | inactive
ALDH3A2 (aldehyde dehydrogenase 3 family member A2) | 3 | -0.147 | inactive
ALDH3A2 (aldehyde dehydrogenase 3 family member A2) | 4 | -0.139 | inactive
P2RX5 (purinergic receptor P2X 5) | 1 | -0.354 | inactive
P2RX5 (purinergic receptor P2X 5) | 2 | 0.00997 | inactive
P2RX5 (purinergic receptor P2X 5) | 3 | -0.145 | inactive
P2RX5 (purinergic receptor P2X 5) | 4 | 0.0123 | inactive
P2RX5 (purinergic receptor P2X 5) | 5 | -0.471 | inactive
P2RX5 (purinergic receptor P2X 5) | 6 | 0.339 | inactive
P2RX5 (purinergic receptor P2X 5) | 7 | 0.295 | inactive
P2RX5 (purinergic receptor P2X 5) | 8 | -0.138 | inactive
PSTPIP1 (proline-serine-threonine phosphatase interacting protein 1) | 1 | -0.00688 | inactive
PSTPIP1 (proline-serine-threonine phosphatase interacting protein 1) | 2 | 0.0595 | inactive
PSTPIP1 (proline-serine-threonine phosphatase interacting protein 1) | 3 | -0.312 | inactive
PSTPIP1 (proline-serine-threonine phosphatase interacting protein 1) | 4 | -0.0556 | inactive
STAT6 (signal transducer and activator of transcription 6) | 1 | -0.165 | inactive
STAT6 (signal transducer and activator of transcription 6) | 2 | -0.251 | inactive
STAT6 (signal transducer and activator of transcription 6) | 3 | -0.0941 | inactive
STAT6 (signal transducer and activator of transcription 6) | 4 | -0.31 | inactive
LRRC40 (leucine rich repeat containing 40) | 1 | -0.0107 | inactive
LRRC40 (leucine rich repeat containing 40) | 2 | 0.167 | inactive
LRRC40 (leucine rich repeat containing 40) | 3 | 0.0787 | inactive

Records above whose target name starts with L or l:
target | siRNA no. | log2 vehicle/camptothecin viability | Call
LRRC40 (leucine rich repeat containing 40) | 1 | -0.0107 | inactive
LRRC40 (leucine rich repeat containing 40) | 2 | 0.167 | inactive
LRRC40 (leucine rich repeat containing 40) | 3 | 0.0787 | inactive
